Source: the supplement of paper PMC10849652
The other results are listed elsewhere or left out.

Experiments:
Experiment in all cases: log2 fold change, soluble protein after heating vs DMSO (PISA); higher = thermal stabilisation; K562 lysate, 10 uM; active = over 0.2 and 3.5 SD of the protein, either way, in both replicates (recomputed)
vorinostat = compound: O=C(CCCCCCC(=O)Nc1ccccc1)NO [vorinostat]
In short: (§1)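 Pellets of K562 cells were dounce-homogenised in PBS pH 7.4 with 1 mM MgCl2, and the crude extract was held at 1 mg/mL protein for a 30 min treatment with 10 μM compound. Aliquots were heated for 3 min over 48°C-58°C and pooled before NP-40 was added to 0.5% at 4°C. The supernatant from 21,000xg for 90 min was quantified by TMTpro 16plex LC-MS/MS with channel sums equalised. Values are reported from duplicates as log-two fold change in thermal stability relative to solvent controls.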

silmitasertib = compound: O=C(O)c1ccc2c(c1)nc(Nc1cccc(Cl)c1)c1ccncc12 [silmitasertib]
In short: as §1

[1] = compound: O=C1NC(=O)C(c2cnc3ccccn23)=C1c1cn2c3c(cc(F)cc13)CN(C(=O)N1CCCCC1)CC2
In short: as §1

entospletinib = compound: c1cn2cc(-c3ccc4cn[nH]c4c3)nc(Nc3ccc(N4CCOCC4)cc3)c2n1 [entospletinib]
In short: as §1

Measured: log2 fold change

UPF3A (UniProt Q9H1J1)
inactive: vorinostat 0.251 | silmitasertib 0.013 | [1] 0.078 | entospletinib -0.243

UNG (UniProt P13051)
inactive: vorinostat -0.072 | silmitasertib 0.179 | entospletinib -0.15

UNC13A (UniProt Q9UPW8)
inactive: vorinostat -0.485 | silmitasertib 0.078
